## Library screen at single concentrations

Mtb glucose medium: 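Growth of Mycobacterium tuberculosis over 3 days (7H9 medium with glucose and tyloxapol); the read-out is not stated. Compounds at 500 µM. The record gives no direction; compounds that gave an IC50 in retests scored well above the rest, so higher reads as more growth inhibition. Size under these conditions: about 18,000 compounds, about 1,400 of them at 50% or above in at least one test.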
Mtb cholesterol medium: 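Phenotypic screen: M. tuberculosis growth, cholesterol and DPPC medium, 4 days; the read-out is not stated. Concentration: 500 µM. The record gives no direction; compounds that gave an IC50 in retests scored well above the rest, so higher reads as more growth inhibition. Of about 18,000 compounds tested this way, about 900 (5%) reached 50% or more in at least one test.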

Values are the deposited “Percent Effect”, in %. The controls that fix the scale are not given in the record; negative values are as filed. Compounds were drawn at random from those tested, without regard to their results.

compound	Mtb glucose medium	Mtb cholesterol medium
Cc1ccc(C(N)=O)cc1OCc1ccccn1	-2.148	1.678
CC(=O)N1CCc2c(nc[nH]c2=O)C1	6.944	3.475
CCOc1cccc(OCCN2CCC(O)(CO)C2)c1 (stereo unspecified)	25.72	24.36
Cc1cc(NC(=O)NCCN2CCC(C)CC2)no1	2.481	-9.28
CC(NC(=O)c1ccc(CCNS(C)(=O)=O)s1)C1CC1 (stereo unspecified)	27.81	5.403
Cc1cccc(Cl)c1NC(=O)NCC1(C)OCCO1	-10.48	-15.93
CC(NCC(C)(C)C(N)=O)c1ccc2c(c1)OCO2 (stereo unspecified)	-0.9589	-8.403
COc1cc(Cl)ccc1C(=O)N[C@@H]1CCNC[C@H]1O	24.47	3.476
Cc1cc(C(=O)NC(C)(CO)CO)nc2ccccc12	-0.04366	-12.22
c1csc(CNC2CC2)n1	10.5	2.967
COCCOCc1ccc(CN)cc1	13.91	1.084
CCC(=O)N1CCN(C(=O)CC(C)(C)C)CC1	11.64	3.279
COc1cc(CNC2CCCN(C)C2)cc2c1OCO2 (stereo unspecified)	34.8	15.4
COC(=O)c1cc(C)sc1N1C(=O)C=CC1=O	4.179	-4.791
CCCS(=O)(=O)NCCN1CCC(CO)CC1	5.51	-2.222
CCC(NC(=O)c1ccc(=O)[nH]c1)c1nc(C)c[nH]1 (stereo unspecified)	-6.327	-0.9551
CN(C)C(=O)CNC(=O)c1cncc2ccccc12	11.66	3.482
COCCC(CO)NC(=O)c1cnn(C(C)C)c1C (stereo unspecified)	59.45	66.39
CCC(NC(=O)c1cc(N)[nH]n1)c1nc(C)c[nH]1 (stereo unspecified)	19.79	3.528
Cc1nc(N(C)C)cc(N2CCN(S(C)(=O)=O)CC2)n1	1.858	-5.662
CN(C(=O)CN1CCC(O)CC1)C1CCCCC1	-13.72	-25.28
NCC1CCN(C2CCCC2)C1 (stereo unspecified)	-4.579	2.928
Cc1nc(C(C)NC(=O)CNC(=O)N(C)C)c(C)s1 (stereo unspecified)	-1.074	-6.094
CC(C)c1cccc(S(=O)(=O)NCCN)c1	53.43	33.94
COCCN(C)CCCNC(=O)c1cc(C2CC2)[nH]n1	-3.687	5.846
CC(C(=O)Nc1cccc(C#N)c1)N1CCC(O)CC1 (stereo unspecified)	4.973	-5.631
CCn1ccc(CN2CCCN(S(C)(=O)=O)CC2)n1	-1.219	-7.205
Cc1ccc2c(c1)OCCN2C(=O)c1cnsn1	2.908	6.524
CN(C)CCNC(N)=O	0.3741	-2.058
CCNCCCC1CCNCC1	-10.67	-2.526
COCCC1(CO)CCCN(CC(N)=O)C1 (stereo unspecified)	-12.89	-6.952
Cc1cccc(NC(=O)NCc2c(C)noc2C)n1	53.53	41.05
O=C(CC1CCCCO1)Nc1cnccn1 (stereo unspecified)	44.58	16.92
OCc1cc(C(F)F)n[nH]1	9.477	5.451
CCOc1nnc(CNCC2CCN(CCO)CC2)s1	10.05	-9.97
CC1CNC(=O)CCN1Cc1ccc(S(C)(=O)=O)cc1 (stereo unspecified)	12.6	-12.99
CCN(C(=O)c1ccc(-c2ccco2)[nH]c1=O)C1CC1	8.63	10.12
COc1ccccc1C1(N)CCC1	4.995	0.2115
CC(c1cccnc1)N(C)C(=O)c1nccn1C (stereo unspecified)	8.886	-0.7102
CCN(CC)CCn1ccc2ncccc2c1=O	7.336	11.74
Clc1ccc(N2CCN(Cc3ncc[nH]3)CC2)nc1	65.88	22.62
O=C(c1ccc(Br)cc1)N1CCNCC1	7.291	10.87
NC1CCC(F)(F)C1 (stereo unspecified)	4.313	13.18
O=C(c1cnc(O)cn1)N1CCOC2(CCCC2)C1	6.888	-4.158
NS(=O)(=O)N1CCCN(CCC2CCCC2)CC1	-8.494	3.402
Cc1cc(N(C)C(=O)C(C)N)ccc1Br (stereo unspecified)	29.15	17.36
O=C1NCCCC1O (stereo unspecified)	-7.184	-13.52
O=C([C@H]1CC[C@@H](O)CC1)N1CCC(c2nnc[nH]2)CC1	8.206	12.67
Cc1ccc([C@@H](O)CN)cc1	15.43	9.149
CN(CCn1cc(Cl)cn1)CC(C)(C)CO	-8.847	6.52
Cc1nc2n(n1)CCCC2N (stereo unspecified)	4.34	-2.961
NC(CF)c1ccccc1 (stereo unspecified)	2.045	-0.2981
CCNCCNC(=O)c1cc(F)cc(Br)c1	33.63	9.713
OCC(O)CNc1ncc(-c2ccccc2)s1 (stereo unspecified)	31.44	17.17
O=C(Cc1cccc(O)c1)N(CCO)CC1CC1	-0.5006	-9.485
COc1ccnc(NC(=O)c2sccc2OC)c1	-0.8259	-12.62
CC(C(=O)NCCc1ccc(O)cc1)n1cccn1 (stereo unspecified)	10.38	5.223
CCOCCN1CCN(Cc2cnn(C)c2)CC1C (stereo unspecified)	-5.376	-10.49
Cc1cc(N2CCC(NS(C)(=O)=O)CC2)nc(C)n1	7.832	0.369
CN(C(=O)NCc1ccco1)C1(CCO)CCOCC1	-7.004	-14.69
CCc1nn2c(=O)cc(CN(CC)CC)nc2s1	8.773	-0.3221
CN(C)Cc1ccccc1CNC(=O)C1COCCO1 (stereo unspecified)	15.87	4.114
CC(CO)N(C)C(=O)c1cccc(-n2cccc2)c1 (stereo unspecified)	29.44	7.539
O=C1OCCN1C1CCNCC1	-5.226	-8.442
CC1=CS(=O)(=O)c2c(F)cccc21	-4.408	-5.629
OCCc1cnn(-c2ccccc2CO)c1	8.535	10.02
CN(Cc1cccc2cnccc12)C(=O)CNC(N)=O	-1.946	-5.982

The values are deposited in ChEMBL (CHEMBL3988442, “University of Dundee, Small-Polar-MMV Screening Library” (2021)).